According to PubChem BioAssay AID256 (DTP/NCI, 2004):
The list shows only some results of the screen, not a fair sample: it is rich in T/C values a quarter to a half above the control, in often repeated tests (any T/C) and in doses without a T/C. Other doses and runs of a compound stand elsewhere. T/C is the treated group as % of the vehicle group. Some entries give survivors of the animals treated and no T/C: the source holds a T/C of zero for them, seemingly a mark for toxic or unscored doses. Some survivor counts are full or nearly so, which does not show that the dose was tolerated: survival well below the control is almost never listed, so the zero probably covers shortened survival too. Counts of survivors are from the toxicity check (mostly the fifth day) where no day follows; animals may have died later. Schedules are NCI's codes, taken here to give the interval after Q, in days (D) or hours (H), and the number of doses after X. Some doses were run more than once; their values stand side by side, smallest first. Additions like (4×) give the number of equal values in this list. Where survival is the endpoint, this PubChem deposit counts one and a half times the control or more as active, and values a quarter to a half above the control carry no call in these data; other NCI protocols may use other cut-offs. Some T/C values carry the count of animals alive at the toxicity check (mostly the fifth day); without a count, all were alive then.

Test system: CD2F1 mice, L1210 leukemia ip, survival T/C
Experiment: NCI In Vivo Anticancer Drug Screen. Data for tumor model L1210 Leukemia (intraperitoneal) in CD2F1 (CDF1) mice
Details: higher T/C = longer survival
Outline: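 Compound-dosed mice with transplantable tumor versus matched vehicle controls; endpoint ratio T/C reported.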

[1] = T/C endpoint: mean survival time, dose: 400.0 mg/kg/injection, schedule: Q01DX009 (ip), vehicle: saline with Tween-80
[2] = T/C endpoint: mean survival time, dose: 400.0 mg/kg/injection, schedule: Q04DX002 (ip), vehicle: saline with Tween-80
[3] = T/C endpoint: mean survival time, dose: 200.0 mg/kg/injection, schedule: Q01DX001 (ip), vehicle: saline with Tween-80
[4] = T/C endpoint: mean survival time, dose: 400.0 mg/kg/injection, schedule: Q01DX001 (ip), vehicle: saline with Tween-80
[5] = T/C endpoint: mean survival time, dose: 50.0 mg/kg/injection, schedule: Q04DX003 (ip), vehicle: saline with Tween-80
[6] = T/C endpoint: mean survival time, dose: 200.0 mg/kg/injection, schedule: Q04DX003 (ip), vehicle: saline

With `C/C(=C\Cl)COC(C)(C)C` the survivor count (T/C endpoint: mean survival time, dose: 400.0 mg/kg/injection, schedule: Q04DX003 (ip), vehicle: acetone) was 0 of 6.

With `COc1cc([C@@H]2c3cc4c(cc3[C@H](OC(C)=O)[C@H]3COC(=O)[C@@H]23)OCO4)cc(OC)c1OC` the T/C (T/C endpoint: mean survival time, dose: 50.0 mg/kg/injection, schedule: Q01DX009 (ip), vehicle: saline sonified) was 127 % of control and the survivor count (T/C endpoint: mean survival time, dose: 200.0 mg/kg/injection, schedule: Q01DX009 (ip), vehicle: saline sonified) was 5 of 6.

For `Cc1c2c[n+](CCCCCCCC[n+]3ccc4c(C)c5c(c(C)c4c3)c3ccccc3n5CCO)ccc2c(C)c2c1c1ccccc1n2CCO`, the T/C (T/C endpoint: mean survival time, dose: 3.13 mg/kg/injection, schedule: Q04DX003 (ip), vehicle: distilled water + Tween-80) was 132 and 137 % of control [5 of 6 alive], the T/C (T/C endpoint: mean survival time, dose: 12.5 mg/kg/injection, schedule: Q04DX003 (ip), vehicle: distilled water + Tween-80) was 132 % of control and the survivor count (T/C endpoint: mean survival time, dose: 25.0 mg/kg/injection, schedule: Q04DX003 (ip), vehicle: distilled water + Tween-80) was 3 of 6 and 6 of 6. The survivor count (T/C endpoint: mean survival time, dose: 50.0 mg/kg/injection, schedule: Q04DX003 (ip), vehicle: distilled water + Tween-80) was 4 of 6.

`C=C(C)C1(Cc2ccccc2)C(=O)NC(=O)NC1=O` was tested, and the survivor count (T/C endpoint: mean survival time, dose: 80.0 mg/kg/injection, schedule: Q01DX001 (ip), vehicle: saline) was 3 of 6.

With `O=C(O)c1[nH]c(=O)[nH]c(=O)c1F.[Ga]` the T/C (T/C endpoint: mean survival time, dose: 80.0 mg/kg/injection, schedule: Q01DX001 (ip), vehicle: saline with Tween-80) was 132 % of control, the T/C (T/C endpoint: mean survival time, dose: 118.0 mg/kg/injection, schedule: Q01DX001 (ip), vehicle: saline with Tween-80) was 131 % of control and the survivor count (T/C endpoint: mean survival time, dose: 266.0 mg/kg/injection, schedule: Q01DX001 (ip), vehicle: saline with Tween-80) was 0 of 6.

With `c1ccc2sc(SSN3CC4CCC(CC4)C3)nc2c1` the survivor count [1] was 2 of 6.

With `CC(C)C(O)(c1ccccc1)C(O)(c1ccccc1)C(C)C` (stereo unspecified) the survivor count [2] was 0 of 3.

In the case of `COC1=C(OC)C(=O)C(N(C)C)=C(CO)C1=O`, the survivor count (T/C endpoint: median survival time, dose: 240.0 mg/kg/injection, schedule: Q01DX005 (ip), vehicle: saline) is reported as 0 of 6.

In the case of `CC(=O)Nc1ccc(Nc2ccc(C(=C3C=CC(=[N+](C)CCC#N)C=C3)c3ccc(N(C)CCC#N)cc3)cc2)cc1`, the survivor count (T/C endpoint: mean survival time, dose: 50.0 mg/kg/injection, schedule: Q01DX009 (ip), vehicle: saline with Tween-80) is reported as 1 of 6 and 6 of 6, the survivor count (T/C endpoint: mean survival time, dose: 100.0 mg/kg/injection, schedule: Q01DX009 (ip), vehicle: saline with Tween-80) is reported as 0 of 6 and 2 of 6 and the T/C (T/C endpoint: mean survival time, dose: 100.0 mg/kg/injection, schedule: Q04DX002 (ip), vehicle: saline with Tween-80) is reported as 128 % of control [2 of 3 alive]. The survivor count (T/C endpoint: mean survival time, dose: 200.0 mg/kg/injection, schedule: Q01DX009 (ip), vehicle: saline with Tween-80) was 0 of 6, the survivor count [1] was 0 of 6 and the survivor count [2] was 1 of 3.

In the case of `C[CH2][Sn]1([CH2]C)[O]C2C(CO)OC(n3ccc(=O)[nH]c3=O)C2[O]1` (stereo unspecified), the survivor count (T/C endpoint: mean survival time, dose: 12.5 mg/kg/injection, schedule: Q01DX005 (ip), vehicle: water) is reported as 3 of 6, the survivor count (T/C endpoint: mean survival time, dose: 25.0 mg/kg/injection, schedule: Q01DX005 (ip), vehicle: other) is reported as 0 of 6 and the survivor count (T/C endpoint: mean survival time, dose: 25.0 mg/kg/injection, schedule: Q01DX005 (ip), vehicle: water) is reported as 0 of 6. For the same compound, the survivor count (T/C endpoint: mean survival time, dose: 50.0 mg/kg/injection, schedule: Q01DX005 (ip), vehicle: other) was 0 of 6, the survivor count (T/C endpoint: mean survival time, dose: 100.0 mg/kg/injection, schedule: Q01DX005 (ip), vehicle: other) was 0 of 6 and the survivor count (T/C endpoint: mean survival time, dose: 200.0 mg/kg/injection, schedule: Q01DX005 (ip), vehicle: other) was 0 of 6.

`O=C(c1ccccc1)N(N=C(c1ccc([N+](=O)[O-])cc1)c1ccc([N+](=O)[O-])cc1)c1ccccc1` was tested, and the survivor count (T/C endpoint: mean survival time, dose: 200.0 mg/kg/injection, schedule: Q04DX003 (ip), vehicle: saline with Tween-80) was 6 of 6.

In the case of `c1ccc([P+](c2ccccc2)(c2ccccc2)C2OCCO2)cc1`, the survivor count [3] is reported as 0 of 6 and the survivor count [4] is reported as 0 of 6.

In the case of `CC(C)(C)OC(=O)NOC(=O)C(C)(C)C`, the survivor count (T/C endpoint: mean survival time, dose: 100.0 mg/kg/injection, schedule: Q04DX003 (ip), vehicle: saline with Tween-80) is reported as 6 of 6.

With `CC1OC(OC2C(O)CC(OC3C(O)CC(OC4CCC5(C)C(CCC6C5CCC5(C)C(C7=CC(=O)OC7)CCC65O)C4)OC3C)OC2C)CC(O)C1O` (stereo unspecified) the survivor count (T/C endpoint: median survival time, dose: 16.0 mg/kg/injection, schedule: Q04DX003 (iv), vehicle: water) was 4 of 8.

`C=C1C(=O)O[C@@H]2C[C@@]3(C)CCC[C@H](C)C3=C[C@H]12` was tested, and the survivor count (T/C endpoint: mean survival time, dose: 400.0 mg/kg/injection, schedule: Q01DX009 (ip), vehicle: saline) was 0 of 6.

`NCCCNCCCCNC(=O)C(O)NC(=O)CC(O)CCCCN=C(N)N` (stereo unspecified) was tested, and the T/C (T/C endpoint: median survival time, dose: 25.0 mg/kg/injection, schedule: Q01DX009 (ip), vehicle: saline, evaluated on day 30) was 200, 215, 219 % of control, the T/C (T/C endpoint: median survival time, dose: 25.0 mg/kg/injection, schedule: Q01DX009 (ip), vehicle: saline, evaluated on day 40) was 171 % of control [5 of 6 alive] and the T/C (T/C endpoint: median survival time, dose: 50.0 mg/kg/injection, schedule: Q01DX009 (ip), vehicle: saline, evaluated on day 30) was 200, 224, 231 % of control. For the same compound, the T/C (T/C endpoint: median survival time, dose: 50.0 mg/kg/injection, schedule: Q01DX009 (ip), vehicle: saline, evaluated on day 40) was 189 % of control.

In the case of `Cc1cn(C2CC(O)C(CO)O2)c(=O)nc1NCC12CC3CC(CC(C3)C1)C2` (stereo unspecified), the survivor count (T/C endpoint: median survival time, dose: 200.0 mg/kg/injection, schedule: Q01DX005 (ip), vehicle: distilled water + Tween-80) is reported as 6 of 6.

`ClCCN(CCCl)c1ccc(CCCCN2CCOCC2)cc1` was tested, and the T/C (T/C endpoint: mean survival time, dose: 20.0 mg/kg/injection, schedule: Q01DX009 (ip), vehicle: saline) was 130 % of control.

`[Br][Pt+2][Br].[NH-]C(CC([NH-])c1ccccc1)c1ccccc1` (stereo unspecified) was tested, and the survivor count (T/C endpoint: mean survival time, dose: 25.0 mg/kg/injection, schedule: Q04DX003 (ip), vehicle: saline with Tween-80) was 5 of 6 and the survivor count [5] was 1 of 6 (2×).

With `C1=C[N-]c2c3c(ccc2=C1)=CC=C[N-]3.C1=C[N-]c2c3c(ccc2=C1)=CC=C[N-]3.[Cl][Ru][Cl]` the survivor count (T/C endpoint: mean survival time, dose: 25.0 mg/kg/injection, schedule: Q04DX003 (ip), vehicle: water) was 1 of 6, the survivor count (T/C endpoint: mean survival time, dose: 50.0 mg/kg/injection, schedule: Q04DX003 (ip), vehicle: water) was 0 of 6 and the survivor count (T/C endpoint: mean survival time, dose: 100.0 mg/kg/injection, schedule: Q04DX003 (ip), vehicle: water) was 0 of 6. The survivor count (T/C endpoint: mean survival time, dose: 200.0 mg/kg/injection, schedule: Q04DX003 (ip), vehicle: water) was 0 of 6.

For `CCCCOC(=O)CCC(NC(=O)c1ccc(N(C)Cc2cnc3nc(N)nc(N)c3n2)cc1)C(=O)O` (stereo unspecified), the T/C (T/C endpoint: mean survival time, dose: 0.75 mg/kg/injection, schedule: Q01DX009 (ip), vehicle: water) was 141 % of control and the survivor count (T/C endpoint: mean survival time, dose: 12.0 mg/kg/injection, schedule: Q01DX009 (ip), vehicle: water) was 5 of 6.

For `COC1(OC)C(Cl)=C(Cl)C(Cl)=C1Cl`, the survivor count [5] was 2 of 6.

In the case of `O=c1c(Cl)c(C(Cl)(Cl)Cl)[nH]c2ccccc12`, the survivor count (T/C endpoint: mean survival time, dose: 100.0 mg/kg/injection, schedule: Q01DX001 (ip), vehicle: saline with Tween-80) is reported as 0 of 6, the survivor count [3] is reported as 0 of 6 and the survivor count [4] is reported as 0 of 6.

`O=C(Nc1ccc(C2=NCCN2)cc1)c1ccc(NC(=O)c2ccc(C3=NCCN3)cc2)cc1` was tested, and the T/C (T/C endpoint: median survival time, dose: 15.0 mg/kg/injection, schedule: Q01DX009 (ip), vehicle: saline) was 133 % of control and the T/C (T/C endpoint: median survival time, dose: 120.0 mg/kg/injection, schedule: Q01DX009 (ip), vehicle: saline) was 138 % of control.

For `CCCOP(=O)(N1CC1(C)C)N1CC1(C)C` (stereo unspecified), the T/C (T/C endpoint: mean survival time, dose: 25.0 mg/kg/injection, schedule: Q04DX003 (ip), vehicle: saline) was 126 % of control, the T/C (T/C endpoint: mean survival time, dose: 50.0 mg/kg/injection, schedule: Q01DX009 (ip), vehicle: saline) was 148 % of control and the survivor count (T/C endpoint: mean survival time, dose: 200.0 mg/kg/injection, schedule: Q01DX009 (ip), vehicle: saline) was 3 of 6 and 6 of 6. The survivor count [6] was 3 of 6.

`O=CN(O)CC(=O)O.[Zn]` was tested, and the survivor count (T/C endpoint: mean survival time, dose: 50.0 mg/kg/injection, schedule: Q04DX003 (ip), vehicle: saline) was 1 of 6, the survivor count (T/C endpoint: mean survival time, dose: 100.0 mg/kg/injection, schedule: Q04DX003 (ip), vehicle: saline) was 0 of 6 and the survivor count [6] was 0 of 6. For the same compound, the survivor count (T/C endpoint: mean survival time, dose: 400.0 mg/kg/injection, schedule: Q04DX003 (ip), vehicle: saline) was 0 of 6.

In the case of `CCCC(O)CNCc1ccc2c3c(cccc13)CC2` (stereo unspecified), the survivor count (T/C endpoint: mean survival time, dose: 100.0 mg/kg/injection, schedule: Q01DX001 (ip), vehicle: Klucel (hydroxypropylcellulose) (HPC)) is reported as 0 of 3.
